The results in this text go back to PMC7255605.

Experiment [1] addresses T1, Leishmania donovani PCNA (endogenous) (Leishmania donovani (endogenous in promastigotes)) (UniProt B5TV91).
T1 sequence: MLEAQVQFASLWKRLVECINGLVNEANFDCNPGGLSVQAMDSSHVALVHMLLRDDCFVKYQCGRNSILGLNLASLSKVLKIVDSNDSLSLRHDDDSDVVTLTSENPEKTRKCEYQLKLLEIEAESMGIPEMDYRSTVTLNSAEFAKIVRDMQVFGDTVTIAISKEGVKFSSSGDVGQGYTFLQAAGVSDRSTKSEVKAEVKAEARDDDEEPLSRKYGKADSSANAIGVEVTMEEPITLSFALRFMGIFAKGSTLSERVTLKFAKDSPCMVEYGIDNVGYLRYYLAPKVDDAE
Description: co-IP; PCNA immunoprecipitated with anti-PCNA antibodies on protein A sepharose from DNaseI-treated whole cell lysates of logarithmically growing transfectant promastigotes, overnight at 4°C; blot with anti-FLAG.

Experiment [2] deals with T2, recombinant His-tagged Leishmania PCNA (Leishmania donovani) (UniProt B5TV91).
T2 sequence: T1 sequence
In words: pull-down; 25 pmoles purified His-tagged PCNA (trimeric) incubated with 130-145 μg E. coli extract holding the overexpressed MBP-Cdc45(481-785) protein in 1X PBS, 2 h at 4°C; pulled down on cobalt (Talon) beads; wash 100 mM Tris.Cl pH 8, 750 mM NaCl; Coomassie and anti-MBP blot; only the target purified.

The target of experiment [3] is T2, recombinant His-tagged Leishmania PCNA (Leishmania donovani). In words: condition: 25 pmoles of purified PCNA (trimeric protein) in 500 μl; pull-down; 25 pmoles purified His-tagged PCNA (trimeric) incubated with 130-145 μg E. coli extract holding the overexpressed MBP-Cdc45(481-785) protein in 1X PBS, 2 h at 4°C; pulled down on cobalt (Talon) beads; wash 100 mM Tris.Cl pH 8, 750 mM NaCl; Coomassie and anti-MBP blot; only the target purified.

The target of experiment [4] is MBP-Cdc45(481-785) (Leishmania donovani). In words: pull-down; MBP-tagged protein immobilised on amylose resin, washed extensively (1 M NaCl) to remove E. coli contaminants, incubated with purified His-tagged PCNA (12.5 μg) 2 h at 4°C; wash 750 mM NaCl; eluted with 10 mM maltose; Coomassie and blot; both purified.
In experiment [5] the target is MBP-Cdc45-PIP(481-785) (Leishmania donovani). Described as above.

No constants are given. Whether binding was seen depends on the method and setting. For part of these data: Binding can be weak; no strength is given. For part of these data: Sequences can lack the tags named with a protein. For part of these data: In cells and extracts the contact can be indirect.

For the molecule Leishmania donovani Cdc45-FLAG, the binding result in experiment [1] is given as “binds”. With “Leishmania donovani Cdc45-PIP-FLAG (PIP box mutant)”, in experiment [1], the binding result is recorded as “no binding”.

Consider “MBP-Cdc45(481-785) (Leishmania donovani) (domain or fragment)”, for which the binding entry in experiment [2] was “binds”. Take “MBP-Cdc45-PIP(481-785) (Leishmania donovani) (domain or fragment)”: the binding entry in experiment [3] is “no binding”.

B1: recombinant His-tagged Leishmania PCNA (protein, UniProt B5TV91 1-292)
chain: T1 sequence
In the case of B1, the binding entry in experiment [4] is given as “binds”; in experiment [5], “no binding (tested: 12.5 μg purified PCNA)”.
